The text below walks through data of PMC4234379.

This series deals with T1, mTERF15-strep (lacking N-terminal 34 aa) del1-34 (Arabidopsis thaliana) (UniProt Q9C6A1).
T1 sequence (looked up): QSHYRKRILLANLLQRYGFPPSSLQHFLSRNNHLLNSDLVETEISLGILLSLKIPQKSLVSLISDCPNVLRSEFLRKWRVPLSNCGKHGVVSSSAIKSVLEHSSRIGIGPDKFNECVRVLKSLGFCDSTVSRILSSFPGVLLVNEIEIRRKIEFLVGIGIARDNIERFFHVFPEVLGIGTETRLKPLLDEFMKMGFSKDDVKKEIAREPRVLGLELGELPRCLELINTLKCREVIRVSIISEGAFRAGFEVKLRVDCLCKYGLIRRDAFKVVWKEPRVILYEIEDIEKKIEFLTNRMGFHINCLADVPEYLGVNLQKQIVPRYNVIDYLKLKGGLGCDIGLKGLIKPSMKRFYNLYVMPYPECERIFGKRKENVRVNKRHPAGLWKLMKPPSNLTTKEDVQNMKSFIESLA
Briefly: EMSA. The note with it: 0-20 nM protein, 100 nM RNA, heparin, EMSA: 20 mM Tris/HCl pH 7.5, 180 mM NaCl, 2 mM DTT, 17 ug/ul BSA, 0.5 mM EDTA, 20 ug/ml heparin, 30 min, room temperature, recombinant protein, residues 35-445, protein details: Strep tag (pET52b), label: 32P (5' end, T4 PNK), probe letters rebuilt from the primers and the genome.

No signal at the amounts used counts as a negative. Tags and fusion partners may be left off the protein sequences shown. Construct, isoform or probe ends are uncertain for at least one entry.

“GAAUACGCGUGUUAUCUGAAGGGAGCACGCUUUUUCGACCGCGGUGCUAUGAUUGCCGGAGCCUCUCCUCGUUCCGCCCGCUGGCCUAUUGGGAUAGCAGCCUGCGGCCUUUGCCUGCCCAUUAGAAUAAUAAUCAAAAAUUCCGGCUCGGCCCGGGAAAGCGCUGGCAACAACAGAAAGGAAGGGGUCCAUGUAGCUGCUGCGCCCGCCCCUCUUCUUAGUCAAUGGGGCAGCAGGUUCGGCAUCUACUAGAAAAGAGAGAAUCCACUUCAGAAACCACACCUCGGCUAGGCAGCGUGUGGAAUGGCCGAGAGCGGACCUUUUUGGAUAUAUAAUCCAAGUCGAGAGUGGAGUUACAGGAACAGCCGUCUGAUGGAAAAAAACUUUCACGUUCGGUUCAGAGAGCACUUUUUUCGUUGAGAAUUCCUCGUUCCCUUUCGUGUGAAUUCCCCAGUGGCGAAUUUCAAACUUGUGGGUCUAUUCAAUCUCUCGAGCCCCGAAGAAAACCCCCUCCCCC [nad2 intron 3 Fragment 5]”: the binding result is recorded as “no binding”.
Regarding “GAAUACGGGCGGCUGUAGGACGGACGGCCGCCUAUAGGUGGUAGGGUAGGGUGGGUGGUACCGCUCAGAUUGCGGCCAAUCUUCCUAACCGCGCGCGGGCCGGGCUUAGAGCGAGUGAAACUCAUCACUACCUCGUAAGGGCAUUGAGACCAUAGCAUGUUACACGAGGAAAAAAAACCCUUGUAGUGUUGUCACACAGCUGCCCGCCUAGAAGAGUCACUCGCUCUGUAGUGUUGUCACACAAGAUAAGCACGUCGCCCGCCUGCUGGCCGGGCGAAUCGAAGUUCUCUUCCGGUCAACUGUCCACCCAGUCAAGUGCAAAAAACACAGUAGAAUCACGCAACGCACGCUACUGGUGUGCUUCCUGCCCGCGAGGAAAGAAAGAAGAGCGACAAGGUUGAGUUCAGAUUUGACUGUUUGCAGCAUGGGAGCAGAUUACCCAAAAAAUCCCUGGGAACAAUGAAAAAAAAAGAUAUCUCGGUAACAAAAACCAUAGGGGGCUGUAUUGGCGAGAUCCAACGGUGAACAG [nad2 intron 3 Fragment 1]”, the binding result (dose-dependent) was “binds”.
